Results: publication PMC12622526
Results are given in words; binding and its absence hold for the method and conditions named. In cells and extracts the contact can be indirect. A yes stands for co-enrichment or nearness to the bait. Other partners may have been found. Tags and fused reporters may be left off the sequences shown.

Target: COA4‐Flag (human cytochrome c oxidase assembly factor 4), transfected in A549 cells (human) (UniProt Q9NYJ1)
Experiment: affinity purification with mass spectrometry; A549 cells transfected with Flag‐COA4 for 48 h; anti‐FLAG immunoprecipitation (Pierce Co‐IP Kit), SDS‐PAGE bands analysed by LC‐MS/MS

B1: SLC25A3 (protein, UniProt Q00325 50-362)
chain: AVEEQYSCDYGSGRFFILCGLGGIISCGTTHTALVPLDLVKCRMQVDPQKYKGIFNGFSVTLKEDGVRGLAKGWAPTFLGYSMQGLCKFGFYEVFKVLYSNMLGEENTYLWRTSLYLAASASAEFFADIALAPMEAAKVRIQTQPGYANTLRDAAPKMYKEEGLKAFYKGVAPLWMRQIPYTMMKFACFERTVEALYKFVVPKPRSECSKPEQLVVTFVAGYIAGVFCAIVSHPADSVVSVLNKEKGSSASLVLKRLGFKGVWKGLFARIIMIGTLTALQWFIYDSVKVYFRLPRPPPPEMPESLKKKLGLTQ
With B1 the binding was “binds”.
